# The other results are listed elsewhere or left out.
# Compound: Cc1cc(ccc1-c1ccccc1)C(=O)N1CCCN(CC1)C(=O)CCl [compound 10]
# Test: probe-labelled cysteine peptide fold change vs DMSO (competition) (log2 fold change); higher = less target engagement (more negative = stronger competition)
# Details: THP-1, incubation time: 4 h
# 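Note: competitive profiling in live THP-1 cells: cysteine peptides tagged with an iodoacetamide desthiobiotin (IA-DTB) probe, intensity after compound treatment relative to DMSO-treated cells.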
Target,probe-labelled cysteine peptide fold change (10 µM),probe-labelled cysteine peptide fold change (50 µM)
DIAPH2_O60879_484_LDIDLTHLIDSCVNK (UniProt O60879),0.0185,-0.177
DIS3_Q9Y2L1_799_LLAVAIGADCTYPELTDK (UniProt Q9Y2L1),-0.154,-0.114
DHX37_Q8IY37_456_TPLEDYSGECFR (UniProt Q8IY37),-0.0599,-0.138
DNAJA2_O60884_280_IGLVEALCGFQFTFK (UniProt O60884),0.42,0.439
DMAC2_Q9NW81_159_CCHVDDWCLSR (UniProt Q9NW81),-0.0147,-0.197
DIAPH3_Q9NSV4_249_VIQCLK (UniProt Q9NSV4),0.00188,-0.232
DNAJA1_P31689_153_KGAVECCPNCR (UniProt P31689),0.248,-0.168
DNAJA1_P31689_153_GAVECCPNCR (UniProt P31689),0.0991,-0.0589
DHX9_Q08211_940_FCEHKR (UniProt Q08211),0.0491,-0.181
DHX30_Q7L2E3_535_GGALLFCTVGILLR (UniProt Q7L2E3),-0.765,0.367
DNM1L_O00429_505_HPDFADACGLMNNNIEEQRR (UniProt O00429),-0.479,-0.649
DHX9_Q08211_777_VRPGFCFHLCSR (UniProt Q08211),-0.231,-0.0284
DHX57_Q6P158_881_CVIHPLHSSLSSEEQQAVFVKPPAGVTK (UniProt Q6P158),-0.00455,-0.0708
DNM1L_O00429_446_IIQHCSNYSTQELLR (UniProt O00429),-0.165,-0.0631
DMXL2_Q8TDJ6_1897_VGCPVLALEVLSK (UniProt Q8TDJ6),0.0214,-0.0631
DNAJB14_Q8TBM8_178_QYDLTGNEEQACNHQNNGR (UniProt Q8TBM8),-0.197,-0.277
DMXL2_Q8TDJ6_2925_KGHVCIFDIR (UniProt Q8TDJ6),-0.0272,0.0183
DNAJC13_O75165_820_YECLAEEIK (UniProt O75165),0.23,0.687
DHX8_Q14562_280_VTSIMQFGCFVQLEGLR (UniProt Q14562),-0.0405,0.214
DLST_P36957_104_AVGDTVAEDEVVCEIETDK (UniProt P36957),0.279,0.258

# Retrieved one by one from the list above, 2 records:
Target,probe-labelled cysteine peptide fold change (10 µM),probe-labelled cysteine peptide fold change (50 µM)
DLST_P36957_104_AVGDTVAEDEVVCEIETDK (UniProt P36957),0.279,0.258
DHX9_Q08211_940_FCEHKR (UniProt Q08211),0.0491,-0.181

# The listing continues:

Target,probe-labelled cysteine peptide fold change (10 µM),probe-labelled cysteine peptide fold change (50 µM)
DIS3L2_Q8IYB7_303_DYANTLFICR (UniProt Q8IYB7),0.0602,-0.0215
DIS3_Q9Y2L1_474+476_HLCICSVDPPGCTDIDDALHCR (UniProt Q9Y2L1),-0.0376,-0.285
DLD_P09622_85_NETLGGTCLNVGCIPSK (UniProt P09622),0.215,0.199
DLEC1_Q9Y238_256_LEDSCR (UniProt Q9Y238),0.773,1.66
DLAT_P10515_164_DVPIGAIICITVGKPEDIEAFK (UniProt P10515),0.115,0.118
DNMT1_P26358_1485_ACDPAAR (UniProt P26358),0.112,0.376
DHX33_Q9H6R0_518_FHCTEEILTIVSLLSVDSVLHNPPSRR (UniProt Q9H6R0),-0.0649,0.00512
DLGAP5_Q15398_381_TIQQDSNKLPCPLGPLTVWHEEHVLNK (UniProt Q15398),-0.0365,-0.701
DHX38_Q92620_618_FEDCTSENTLIK (UniProt Q92620),-0.0951,0.123
DHX38_Q92620_1072+1074_CICAAYFHQAAK (UniProt Q92620),0.0584,-0.0577
DIS3L2_Q8IYB7_797_IYCNALALR (UniProt Q8IYB7),0.475,0.537
DHX36_Q9H2U1_781_DYCWEYFLSSNTLQMLHNMK (UniProt Q9H2U1),0.211,0.0914
DHX40_Q8IX18_225_LSAFFGNCPIFDIPGR (UniProt Q8IX18),0.0073,0.294
DHX9_Q08211_608+612_KDKDDDGGEDDDANCNLICGDEYGPETR (UniProt Q08211),-0.761,-0.243
DNAJC16_Q9Y2G8_744_GKPSCGLGSRPIK (UniProt Q9Y2G8),-0.538,-0.523
DHX9_Q08211_1099_LQISHEAAACITGLR (UniProt Q08211),0.136,0.171
DLST_P36957_245_EAQNTCAMLTTFNEIDMSNIQEMR (UniProt P36957),0.0882,-0.03
DICER1_Q9UPY3_1641_DSEYGCLK (UniProt Q9UPY3),-0.337,-0.124
DIS3L2_Q8IYB7_739_QADHCNDR (UniProt Q8IYB7),0.0202,0.243
